Measurements from patent US20190169302A1 (SORRENTO THERAPEUTICS, published 2019).

Target: cynomolgus OX40 (cynomolgus (result sentence); rhesus (method))
Experiment: ELISA, OX40 antigen captured on Ni-NTA plate, antibody at 1 ug/mL

binding: binds
B1: 2B4 wild type anti-OX40 antibody (antibody, V domains shown)
VH: QMQLVQSGAEVKKPGASVKVSCKTSGYTFTGYYLHWVRQAPGQGLEWMGIINPSDGSTRNAQKFEGRVTMTRDTSTSTVYMELSSLSPEDTAVYYCARDLEYIGSGSLSWFDPWGQGTLVTVSS
VL: QPVLTQPASVSGSPGQSITISCTGTSSDLGAYDYVSWYQQQPGQAPKLIIYDVNNRPSGVSNRFSGSKSGNTASLTISGLQAEDEADYYCSSYTSSSTLVYVFGTGTKVTVL
notes: Fully human antibody of an IgG class, captured or detected through human Fc; the isotype control used was IgG1; also called 2B4 (WT); wild type 2B4

These are yes or no findings as the source states them, for the method shown. A result given as binding can be weak or reduced; the word gives no strength.
